Values quoted from earlier work as cited in patent publication US20250241904A1, “COMPOSITION AND METHOD FOR PREVENTION AND TREATMENT OF CUTANEOUS RADIATION INJURY” (Rythera Therapeutics, Inc., priority 2022, published 2025).
At least one compound was matched to its structure with a doubt left.

Columns and labels:
Syrian hamster embryos = Syrian hamster embryos exposed to radiation in utero

With `CCCCC(C)(O)C/C=C/[C@H]1[C@H](O)CC(=O)[C@@H]1CCCCCCC(=O)OC` (mixture of isomers) [Misoprostol] as the compound, how does the radioprotection (humans) read?
The radioprotection was “successful results were not obtained”.

What about the “radioprotection, oncogenic transformation” value (Syrian hamster embryos) of the same compound?
Its value is “effective radioprotector”.
